Results are given in words; binding and its absence hold for the method and conditions named. Some binding calls cover weakened binding; strength is not graded here.
Target: FGFR2 on human dermal papilla cells (DPCs) (human (endogenous in primary dermal papilla cells)) (UniProt P21802)
Assay: flow cytometry on cells

Chains of the proteins cited; added tags and fusions are not shown. Residues count along the entry.
UniProt P21802, residues 22-821: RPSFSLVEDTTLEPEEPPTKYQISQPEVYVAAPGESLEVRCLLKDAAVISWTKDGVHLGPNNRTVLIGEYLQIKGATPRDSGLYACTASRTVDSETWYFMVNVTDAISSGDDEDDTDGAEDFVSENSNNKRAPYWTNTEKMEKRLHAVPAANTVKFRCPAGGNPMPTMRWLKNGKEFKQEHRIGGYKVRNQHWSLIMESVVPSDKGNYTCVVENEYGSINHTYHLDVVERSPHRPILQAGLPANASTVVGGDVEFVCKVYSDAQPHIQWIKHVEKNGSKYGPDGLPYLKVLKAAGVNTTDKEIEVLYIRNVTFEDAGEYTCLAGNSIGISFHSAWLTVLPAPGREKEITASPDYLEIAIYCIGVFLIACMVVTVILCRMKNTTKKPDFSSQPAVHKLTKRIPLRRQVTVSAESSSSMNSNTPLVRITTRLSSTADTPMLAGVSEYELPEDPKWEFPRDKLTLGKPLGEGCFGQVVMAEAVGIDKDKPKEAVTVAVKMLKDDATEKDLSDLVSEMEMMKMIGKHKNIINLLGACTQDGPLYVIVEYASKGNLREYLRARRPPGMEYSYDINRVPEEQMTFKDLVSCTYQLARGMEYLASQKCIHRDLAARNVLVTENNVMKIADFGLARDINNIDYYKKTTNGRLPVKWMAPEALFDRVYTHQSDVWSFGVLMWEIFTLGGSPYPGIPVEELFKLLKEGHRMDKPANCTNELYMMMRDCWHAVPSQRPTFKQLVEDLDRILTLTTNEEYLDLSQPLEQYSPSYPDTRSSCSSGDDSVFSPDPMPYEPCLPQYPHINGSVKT

binding: binds
Binder: AVLKRLEQKGAEADQIIEYLKQQVSLLKEKAILQATLREEK (peptide, UniProt Q12904 6-46, biotin (EZ-Link Sulfo-NHS-LC-Biotinylation kit; sites not stated)) [TN41 (AIMP1 aa 6-46), biotinylated]

— paper doi:10.1101/2022.02.24.481761
